Literature values in patent US6844312B2, “Production of tyrosine hydroxylase positive neurons” (Stem Cell Therapeutics Inc., priority 2001, dated 2005).
At least one compound was matched to its structure with a doubt left.

Test system: E13 striatal neurons
Details: Du et al., 1997a; cited from earlier work

## C=C[C@@]1(C)CC(=O)[C@]2(O)[C@@]3(C)[C@@H](O)CCC(C)(C)[C@@H]3[C@H](O)[C@H](OC(C)=O)[C@@]2(C)O1 [forskolin]
  forskolin concentration required to induce a meaningful amount of TH positive neurons above the base line: more than 3 μM
